Experimental data published in patent US10420761B2, “Allosteric inhibitors of thymidylate synthase” (UNIVERSITY OF FLORIDA RESEARCH FOUNDATION, INCORPORATED, priority 2013, dated 2019).
Some entries share one result that the patent states for a list of compounds. Some compounds share one range, which may span the group rather than tell each member.

Legend:
[1] = test system: human cancer cell lines; test: MTS cell viability assay, statements over several cell lines; type: cell-based; conditions: range over pancreatic neuroendocrine tumors Bon1 and CM and the five compounds; read-out: GI50 values within
Description: Antiproliferative effects of 27 novel TS inhibitors were tested by MTS assay (Promega) in human cancer cell lines representing several major tumor types known to overexpress TS including lung, cervical, pancreatic and hematopoietic tumors. Six compounds (S, U, P, M, G and J) reduced cell viability by more than 40% in both human cervical cancer HeLa (FIG. 6) and myelogenous leukemia K562 cell lines (FIG. 7).
Complete dose response relationships for five most promising compounds (P, U, S, M and G) have been established in pancreatic neuroendocrine cancer, pancreatic ductal cancer and small cell lung cancer cell lines (Table 3). […] In pancreatic neuroendocrine tumors Bon1 and CM—the range was larger with GI50 values within 0.1-100 μM (FIGS. 10, 11). Such discrepancy in response to drugs between Bon1 and CM cells can be explained at least in part by different tumor type of these cells. CM cells were derived from insulinoma, a typical beta cell tumor that secrets insulin while Bon cells are carcinoid tumors derived from lymph nodes that produce serotonin.
We also tested the compounds S, U and P in mouse histiocytic sarcoma cell line that was derived from genetically engineered mouse model with p16 deletion and activated hTS overexpression. […] Dose-response curves and GI50 values for all compounds tested can be found in Table 3 and FIGS. 8-13.
27 top scoring compounds that were identified by in silico screening were tested in human cancer cell lines. Cancer cell lines used for inhibitor testing were maintained under 70% confluency in appropriate cell culture medium (typically DMEM, supplemented with 10% FBS, and 1% pen-strep). Small molecule compounds were obtained from NCI DTP, resuspended in DMSO to generate 50 mM stocks and stored in the dark. In all experiments, fresh compound preparations were used whenever possible and no more than 2 freeze-thaw cycles were allowed for all drug tested. Cells were seeded in 96-well plates in quadruplicates (4 wells/condition) at 4000 cells/well. Compound solutions were freshly prepared in the appropriate cell culture medium and were added the following morning to the cells. After 72-hour incubation with the compound, cell proliferation was measured by MTS assays (Promega) and compared to that of the untreated cells or control drug, such as 5-FU or pemetrexed. Dose-response parameters were determined by plotting percent cell proliferation after treatment from at least eight different compound concentrations and by using non-linear regression fit (4-parameter dose-response) in Sigmaplot. All results shown are representative of at least 3 independent experiments.

[2] = test system: human cervical cancer HeLa; test: MTS cell viability assay, HeLa; type: cell-based
[3] = test system: myelogenous leukemia K562 cell line; test: MTS cell viability assay, K562; type: cell-based, human

Row | SMILES | GI50 [1] [µM] | reduced cell viability [2] | reduced cell viability [3]
1 | CN(Cc1ccoc1)Cc1nnc(SCCOc2ccccc2)n1C [Compound G, 1-(furan-3-yl)-N-methyl-N-((4-methyl-5-((2-phenoxyethyl)thio)-4H-1,2,4-triazol-3-yl)methyl)methanaminium] | 0.1 to 100 | more than 40% | more than 40%
2 | COc1ccc(Cc2c[nH]cc3c(=O)c(OC)ccc2-3)cc1O [Compound M, 4-(3-hydroxy-4-methoxybenzyl)-7-methoxyisoquinolin-8(2H)-one] | 0.1 to 100 | more than 40% | more than 40%
3 | CCc1nc(N)nc(N)c1-c1ccc(N(C)Cc2ccccc2)c([N+](=O)[O-])c1 [Compound S, 5-[4-[benzyl(methyl)amino]-3-nitrophenyl]-6-ethylpyrimidine-2,4-diamine] | 0.1 to 100 | more than 40% | more than 40%
4 | OC[C@H]1CC[C@@H](n2cnc3c(O)ncnc32)O1 [J, 9-((2S,5R)-5-(hydroxymethyl)tetrahydrofuran-2-yl)-3H-purin-6(9H)-one] | – | more than 40% | more than 40%
5 | O[C@@H](c1cc(C(F)(F)F)nc2c(C(F)(F)F)cccc12)C1CCCCN1 (stereo partly drawn) [P, (1S)-(2,8-bis(trifluoromethyl)quinolin-4-yl)(piperidin-2-yl)methanol] | 0.1 to 100 | more than 40% | more than 40%
6 | CCN(CC)C1=CC(=O)/C(=N/Nc2cc(Br)ccn2)C=C1 [U, (E)-6-(2-(4-bromopyridin-2-yl)hydrazono)-3-(diethylamino)cyclohexa-2,4-dienone] | 0.1 to 100 | more than 40% | more than 40%
